Test results published in PubChem BioAssay AID1688 (National Center for Advancing Translational Sciences (NCATS), 2009).
Out of some 220,000 compounds screened, about 2,400 (1.1%) were called active. The inconclusive results got no clear call from the source; some entries with a clear call stand among them for comparison. The call rests on the fitted dose curve; in most records, active means well fitted inhibition curve with a large enough effect; inconclusive means small, poorly fitted or top-dose-only effect, or effect the other way; inactive means no such curve, though single readings can be large or run the other way. A potency beside an inconclusive call is a rough fit, not a confirmed value.

Assay: qHTS Multiplex Assay to Identify Dual Action Probes in a Cell Model of Huntington: Aggregate Formation (GFP); further: nearly all actives have a fitted effect of over 60% in size
Conditions: PC12 HttQ103-GFP aggregates, Acumen cytometry, 40 h; activity change, negative = inhibition: at 46.1 µM (top of the series) unless noted
Method in brief: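 Huntingtin Q103 exon 1–GFP aggregates in induced PC12 cells (100 nM tebufenozide) were quantified by cytometry from lysates, with compounds dosed in titration.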
On the % scale 0 is the no-effect control and ±100 the full control effect; potency means the concentration at half of the fitted maximal effect.

Compound | Potency | activity change, negative = inhibition
Cc1cc(N2CCOCC2)c2c(N)c(Br)cc(C)c2n1 | active: 2 µM | 
C=COCCn1c(=N)n(CCC)c2ccccc21 | inconclusive: 35.5 µM [inhibitor, single point] | 
O/N=C1\CCc2cc(Cl)ccc21 | inconclusive: 10 µM [inhibitor, partial curve] | 
CC1CCCCN1S(=O)(=O)c1ccc(C(=O)Nc2nnc(-c3ccncc3)o2)cc1 (centres undefined) | inconclusive: 12.6 µM [inhibitor, single point] | 
CCc1cc2c(=O)c(-c3ccc4c(c3)OCCO4)coc2cc1OC(=O)c1ccco1 | inconclusive: 1.12 µM [activator, full curve, poor fit] | 
O=C(NNC(=O)c1sccc1-n1cccc1)c1cccc(Cl)c1 | inconclusive: 1.26 µM [inhibitor, single point] | 
N/C(=N/O)c1cccn1Cc1ccccc1[N+](=O)[O-] |  | inactive: 1.61%
Cc1ccc(S(=O)(=O)Nc2cccc3ncccc23)s1 | inconclusive: 35.5 µM [inhibitor, single point] | 
O=C(Cn1nnc(-c2cc(Cl)ccc2-n2cnnn2)n1)N1CCCc2ccccc21 | inconclusive: 3.16 µM [inhibitor, partial curve] | 
C(=N\Nc1nc2ccccc2[nH]1)/C1CCCCC1 |  | inactive: 4.81%
COc1ccc(/C=C/CN2CCN(Cc3ccc(F)cc3)C(CCO)C2)cc1 (centres undefined) |  | inactive: 16% [at 9.22 µM]
COc1ccccc1OCCCn1cc(C#N)c2ccccc21 | inconclusive: 0.562 µM [inhibitor, partial curve, poor fit] | 
COc1ccc(-c2cc(=O)[nH]c(NCc3ccccc3)n2)cc1 | active: 3.98 µM | 
N#Cc1ccccc1NC(=O)CNc1ccccc1N1CCCCC1 |  | inactive: 7.21% [at 9.22 µM]
CCn1c(O)c(N=NC(=S)NCC2CCCO2)c2ccccc21 (centres undefined) | inconclusive: 3.16 µM [inhibitor, single point] | 
CCN(CC)CCn1c(NC(=O)c2ccc(Cl)cc2)nc2ccccc21 | inconclusive: 8.91 µM [inhibitor, partial curve] | 
Cn1c(SCC(=O)N/N=C/C=C/c2ccco2)nc2ccccc21 | inconclusive: 3.16 µM [inhibitor, partial curve, poor fit] | 
CCCCNC(=S)NCc1ccc2c(c1)cc(C)n2C | inconclusive: 3.16 µM [activator, partial curve] | 
Clc1cccc(-c2nc(-c3ccccn3)no2)c1 |  | inactive: -17.3%
CCC(C)(C(=O)NC1CCCC1)N(C(=O)CC1NC(=O)NC1=O)c1ccc(C)cc1 (centres undefined) | inconclusive: 0.501 µM [inhibitor, full curve, poor fit] | 
NC(=S)n1[nH]c(-c2ccc([N+](=O)[O-])cc2)c(N=Nc2cccc([N+](=O)[O-])c2)c1=O | active: 12.6 µM | 
COc1ccc(S(=O)(=O)N2CCC(C(N)=O)(N3CCCCC3)CC2)cc1 |  | inactive: -3.47%
O=C(NCc1cccnc1)c1ccccn1 | inconclusive: 35.5 µM [activator, single point] | 

17 compounds out of the list, arranged by length of the SMILES, ascending.
Compound | Potency | activity change, negative = inhibition
O/N=C1\CCc2cc(Cl)ccc21 | inconclusive: 10 µM [inhibitor, partial curve] | 
O=C(NCc1cccnc1)c1ccccn1 | inconclusive: 35.5 µM [activator, single point] | 
C=COCCn1c(=N)n(CCC)c2ccccc21 | inconclusive: 35.5 µM [inhibitor, single point] | 
Clc1cccc(-c2nc(-c3ccccn3)no2)c1 |  | inactive: -17.3%
C(=N\Nc1nc2ccccc2[nH]1)/C1CCCCC1 |  | inactive: 4.81%
Cc1ccc(S(=O)(=O)Nc2cccc3ncccc23)s1 | inconclusive: 35.5 µM [inhibitor, single point] | 
Cc1cc(N2CCOCC2)c2c(N)c(Br)cc(C)c2n1 | active: 2 µM | 
CCn1c(O)c(N=NC(=S)NCC2CCCO2)c2ccccc21 (centres undefined) | inconclusive: 3.16 µM [inhibitor, single point] | 
O=C(NNC(=O)c1sccc1-n1cccc1)c1cccc(Cl)c1 | inconclusive: 1.26 µM [inhibitor, single point] | 
Cn1c(SCC(=O)N/N=C/C=C/c2ccco2)nc2ccccc21 | inconclusive: 3.16 µM [inhibitor, partial curve, poor fit] | 
CCN(CC)CCn1c(NC(=O)c2ccc(Cl)cc2)nc2ccccc21 | inconclusive: 8.91 µM [inhibitor, partial curve] | 
COc1ccc(/C=C/CN2CCN(Cc3ccc(F)cc3)C(CCO)C2)cc1 (centres undefined) |  | inactive: 16% [at 9.22 µM]
COc1ccc(S(=O)(=O)N2CCC(C(N)=O)(N3CCCCC3)CC2)cc1 |  | inactive: -3.47%
O=C(Cn1nnc(-c2cc(Cl)ccc2-n2cnnn2)n1)N1CCCc2ccccc21 | inconclusive: 3.16 µM [inhibitor, partial curve] | 
CCc1cc2c(=O)c(-c3ccc4c(c3)OCCO4)coc2cc1OC(=O)c1ccco1 | inconclusive: 1.12 µM [activator, full curve, poor fit] | 
CCC(C)(C(=O)NC1CCCC1)N(C(=O)CC1NC(=O)NC1=O)c1ccc(C)cc1 (centres undefined) | inconclusive: 0.501 µM [inhibitor, full curve, poor fit] | 
NC(=S)n1[nH]c(-c2ccc([N+](=O)[O-])cc2)c(N=Nc2cccc([N+](=O)[O-])c2)c1=O | active: 12.6 µM | 

Continued.

Compound | Potency | activity change, negative = inhibition
CCCC(=O)Nc1ccc(N2CCN(C(=O)c3ccccc3C)CC2)cc1 | inconclusive: 3.98 µM [inhibitor, full curve] | 
Cc1ccc(S(=O)(=O)c2c(C(=O)c3ccccc3)cnc3cc4c(cc23)OCCO4)cc1 | inconclusive: 35.5 µM [activator, single point] | 
COc1ccc(NC(=O)Nc2nc3c(s2)CCCC3)cc1 | inconclusive: 8.91 µM [inhibitor, partial curve] | 
Cc1nn(C(C)CC(=O)O)c(C)c1Br (centres undefined) | inconclusive: 1 µM [inhibitor, single point] | 
CCOC(=O)C1CCN(CC(O)COc2ccc(C(C)(C)C)cc2)CC1 (centres undefined) |  | inactive: 13.6%
CC(C)NC(=O)CN1CCC(c2ccccc2)C(O)C1 (centres undefined) | inconclusive: 2.82 µM [activator, partial curve] | 
CCn1c(SCC(=O)Nc2cccc(F)c2)nnc1-c1cc2cc(Br)ccc2o1 | inconclusive: 0.562 µM [inhibitor, full curve, poor fit] | 
CCCNC(=O)c1nc(C)n(-c2ccc([N+](=O)[O-])cc2)n1 | inconclusive: 1.12 µM [inhibitor, partial curve] | 
CCOc1ccc(C2c3c(oc4cc(C)c(C)cc4c3=O)C(=O)N2CCCN2CCOCC2)cc1 (centres undefined) | inconclusive: 20 µM [activator, single point] | 
CCSc1ccccc1C(=O)Nc1nncs1 |  | inactive: -7.81%
CC(C)CC1NC(=O)N(Cc2cc(=O)n3ccsc3n2)C1=O (centres undefined) | inconclusive: 0.562 µM [activator, single point] | 
CCOC(=O)N1CCN(C(=O)c2cc3c(-c4ccc(Cl)cc4)nn(C)c3s2)CC1 |  | inactive: 5.53%
Cc1ccc(NC(=O)c2ccccc2NS(=O)(=O)c2ccc(Cl)s2)cc1S(=O)(=O)N1CCOCC1 | inconclusive: 7.94 µM [inhibitor, partial curve] | 
Fc1ccc(-n2c(Cc3ccccc3)nnc2SCc2nc(-c3ccc(Cl)cc3)no2)cc1 | inconclusive: 22.4 µM [inhibitor, single point] | 
COc1ccc(OC2C(=O)N(Cc3ccc4c(c3)OCO4)C2c2sccc2C)cc1 (centres undefined) | inconclusive: 17.8 µM [inhibitor, partial curve] | 
O=C(CN1C(=O)c2cccc3cccc1c23)N1CCc2ccccc2C1 | inconclusive: 6.31 µM [activator, single point] | 
Cc1ccc(/C=N\NC(=O)c2cc(OCC(F)(F)F)ccc2OCC(F)(F)F)cc1 |  | inactive: -13%
Nc1nc(SCC(=O)OCc2ccccc2)[nH]c(=O)c1NC(=O)c1ccco1 | inconclusive: 1.26 µM [inhibitor, single point] | 
COc1cc(/C=C/C2=CC(C)(C)NC(=S)N2)cc(OC)c1OC | inconclusive: 12.6 µM [activator, partial curve] | 
O=C(Nc1nc(-c2cccs2)cs1)c1ccc(Cl)cc1 | inconclusive: 20 µM [inhibitor, partial curve, poor fit] | 
Clc1cccc(NCc2nnc3n2CCCCC3)c1 |  | inactive: -5.65%
CC(C)(C)c1ccc(C(=O)NC(=S)NNC(=O)c2cccs2)cc1 | inconclusive: 35.5 µM [inhibitor, partial curve] | 
O=C1NCCC/C1=N\Nc1ccc(Br)cc1 |  | inactive: 6.02% [at 9.22 µM]

Arranged by length of the SMILES (smallest number first): 3 of the compounds above.
Compound | Potency | activity change, negative = inhibition
CC(C)NC(=O)CN1CCC(c2ccccc2)C(O)C1 (centres undefined) | inconclusive: 2.82 µM [activator, partial curve] | 
Cn1c(SCC(=O)N/N=C/C=C/c2ccco2)nc2ccccc21 | inconclusive: 3.16 µM [inhibitor, partial curve, poor fit] | 
NC(=S)n1[nH]c(-c2ccc([N+](=O)[O-])cc2)c(N=Nc2cccc([N+](=O)[O-])c2)c1=O | active: 12.6 µM | 

(cont.)

Compound | Potency | activity change, negative = inhibition
O=C(NCc1ccc(F)cc1)C(c1ccncc1)N(C(=O)c1csnn1)C1CC1 (centres undefined) | inconclusive: 5.62 µM [inhibitor, single point] | 
Cc1cc(NC(=O)CC2CCCC2)n(-c2nc3ccccc3[nH]2)n1 | inconclusive: 28.2 µM [inhibitor, single point] | 
COc1ccc(NC(=S)N(CCCN2CCCCCC2)Cc2cccs2)cc1 | inconclusive: 31.6 µM [inhibitor, single point] | 
CSCc1nnc(NC(=O)c2ccc(S(=O)(=O)N(CC(C)C)CC(C)C)cc2)o1 | active: 10 µM | 
CCOc1ccccc1NC(=S)Nc1ncccc1C | inconclusive: 5.62 µM [inhibitor, single point] | 
N#CC1(C#N)COC23CCCCC2C1(C#N)C(=N)O3 (centres undefined) | inconclusive: 11.2 µM [activator, partial curve, poor fit] | 
CC(NC(=O)C(NC(=O)C1CCCN1C(=O)OC(C)(C)C)C(C)C)C(N)=O (centres undefined) |  | inactive: -6.84%
COC(C(=O)C(O)C(C)O)C1Cc2cc3cc(OC4CC(OC5CC(O)C(O)C(C)O5)C(O)C(C)O4)c(C)c(O)c3c(O)c2C(=O)C1OC1CC(OC2CC(OC3CC(C)(O)C(O)C(C)O3)C(O)C(C)O2)C(O)C(C)O1 (centres undefined) | active: 0.224 µM | 
CC(NC(=O)c1ccc(F)cc1)c1ccc2c(c1)CCCC2 (centres undefined) | inconclusive: 35.5 µM [inhibitor, single point] | 
c1ccc(Nc2c3c(nc4ccccc24)CCC3)cc1 |  | inactive: -28%
CCc1ccc(C2=NNC(=Nc3cccc(S(=O)(=O)N(C)C)c3)SC2)cc1 | inconclusive: 35.5 µM [inhibitor, single point] | 
CN(CCO)C1=NS(=O)(=O)c2cc([N+](=O)[O-])ccc21 | active: 6.31 µM | 
Cc1c([N+](=O)[O-])c(C(=O)Nc2ccc3c(c2)OCCO3)nn1C | inconclusive: 1.26 µM [inhibitor, single point] | 
N#C/C(=C(/O)CN1CCN(c2ccccc2F)CC1)c1nc(-c2ccc(Cl)cc2)cs1 | inconclusive: 12.6 µM [inhibitor, single point] | 
CCn1cc(CNC(=O)c2cccc([N+](=O)[O-])c2)cn1 |  | inactive: 1.95%
c1ccc(-n2nnnc2Oc2ccc(-c3nnco3)cc2)cc1 |  | inactive: 3.4%
CSC1=C(C#N)C(c2ccccc2C)C(C#N)=C(N)N1 (centres undefined) |  | inactive: -1.48% [at 9.22 µM]
COc1ccccc1-c1ccc(/C=C2/C=C(CC(C)C)OC2=O)o1 | inconclusive: 20 µM [activator, partial curve] | 
NC(=O)c1ncn([C@@H]2O[C@H](CO)[C@@H](O)[C@H]2O)c1O | inconclusive: 0.562 µM [activator, full curve, poor fit] | 
COc1ccccc1NC(=O)c1ccc(NC(=O)COC(=O)C(C)C)cc1 | inconclusive: 25.1 µM [activator, partial curve] | 
CC(=O)[C@H]1[C@H](c2cccc(Cl)c2)C(C#N)(C#N)[C@@H]2c3ccccc3C=CN21 | inconclusive: 22.4 µM [activator, single point] | 
C/C(=N\NC(=O)c1ccc(Cn2cc([N+](=O)[O-])cn2)o1)c1cccc(NC(=O)C(C)C)c1 |  | inactive: -13.7%
COC(=O)c1cc(=O)n(Cc2ccco2)c(=Nc2ccc(F)c(Cl)c2)s1 | inconclusive: 35.5 µM [inhibitor, single point] | 
